Experimental data: US8557746B2, “High throughput screens for small-molecule inhibitors of the nuclear receptor-like pathway regulating multidrug resistance in fungi” (The General Hospital Corporation, priority 2009, dated 2013)
At least one structure is not confirmed: it was looked up by name or label, or the drawing left a doubt.

Protein sequences, listed by entry. Tags and fused reporters are not part of them. Lines headed by an entry give the natural chain unless they say otherwise; changes in a name come on top.
UniProt P12383: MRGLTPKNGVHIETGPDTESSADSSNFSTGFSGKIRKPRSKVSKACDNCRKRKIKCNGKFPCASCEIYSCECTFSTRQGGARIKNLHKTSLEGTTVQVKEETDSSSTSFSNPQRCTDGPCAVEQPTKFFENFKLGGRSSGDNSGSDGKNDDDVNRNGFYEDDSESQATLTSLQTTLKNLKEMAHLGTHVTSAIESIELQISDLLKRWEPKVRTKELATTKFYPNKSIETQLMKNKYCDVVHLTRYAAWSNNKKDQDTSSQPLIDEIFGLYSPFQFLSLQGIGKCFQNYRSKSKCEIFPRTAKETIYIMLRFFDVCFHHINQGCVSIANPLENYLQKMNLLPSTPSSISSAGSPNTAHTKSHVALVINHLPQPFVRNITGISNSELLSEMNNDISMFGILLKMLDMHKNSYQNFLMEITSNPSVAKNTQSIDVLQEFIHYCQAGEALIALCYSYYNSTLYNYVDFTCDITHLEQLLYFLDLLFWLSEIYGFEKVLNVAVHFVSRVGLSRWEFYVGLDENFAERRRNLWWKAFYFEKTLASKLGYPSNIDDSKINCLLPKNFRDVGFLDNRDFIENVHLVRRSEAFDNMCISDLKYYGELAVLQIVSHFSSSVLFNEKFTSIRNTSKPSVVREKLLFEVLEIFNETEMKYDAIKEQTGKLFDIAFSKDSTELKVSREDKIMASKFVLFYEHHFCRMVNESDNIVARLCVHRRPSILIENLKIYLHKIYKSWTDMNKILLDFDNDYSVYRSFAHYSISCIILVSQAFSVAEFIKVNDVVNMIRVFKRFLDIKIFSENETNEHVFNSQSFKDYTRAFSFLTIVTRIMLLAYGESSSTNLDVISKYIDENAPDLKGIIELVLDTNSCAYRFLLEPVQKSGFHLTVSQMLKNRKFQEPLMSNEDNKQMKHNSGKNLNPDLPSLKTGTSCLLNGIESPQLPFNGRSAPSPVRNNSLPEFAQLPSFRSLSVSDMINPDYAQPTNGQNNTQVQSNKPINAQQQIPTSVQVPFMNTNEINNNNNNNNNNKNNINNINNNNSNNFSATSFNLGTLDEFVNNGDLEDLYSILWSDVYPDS

Tests used:
PDR5 gene = test: Xenobiotic-induced transcription of Pdr1p/Pdr3p target genes by quantitative real-time RT-PCR; type: cell-based; conditions: S. cerevisiae, Pdr1p/Pdr3p-dependent, 20 min drug treatment
Experimental: Yeast cultures were grown overnight with agitation in YPD at 30° C. The next day, cells were pelleted and washed twice with sterilized purified water (Millipore). Cells were then resuspended in 1% yeast extract and 2% peptone (YP) to an optical density (OD600) of 0.8, grown for another 16 hr at 30° C., then treated with different drugs for 20 min for quantitative RT-PCR, or 5 hr for β-galactosidase assay.
Total RNA was extracted from 5 ml of yeast culture using the Qiagen RNeasy MiniKit. Two micrograms of total RNA was used to generate cDNA using the First-Strand cDNA Synthesis Kit (GE Healthcare). The cDNA mix was diluted tenfold, and 2 μl was used for real-time quantitative PCR with SYBR Green (Applied Biosystems) on an ABI Prism 7900HT Sequence Detection System (Applied Biosystems).

Myc6-Pdr1p = molecular target: T1, Myc6-Pdr1p (Saccharomyces cerevisiae, UniProt P12383); test: Drug-binding and cold competition assay with 3H-ketoconazole; design: species or system S. cerevisiae; conditions: unlabelled xenobiotic at 1,000-fold excess of KET
T1 construct: N-terminal Myc-tagged full-length wild-type Pdr1p (Myc6-Pdr1pwt); made in house; host or cells: yeast (S. cerevisiae), immunopurified with anti-Myc 9E10 on Protein A/G beads
Experimental: For co-immunoprecipitation, yeast cells were transformed with Myc6-Pdr1pwt and Gal11p-Flag2 (or Gal11pAKIX-Flag2). Cells were washed with 1×PBS after overnight culture in YPD medium, and then cultured in YP for another 24 hr. Cells were then treated with different concentrations of ketoconazole and cycloheximide (or ethanol for vehicle controls) for 1 hr. Yeast cell lysates were extracted in immunoprecipitation buffer (50 mM Tris-HCI, pH 8.0, 140 mM NaCl, 0.1 mM EDTA, 10% glycerol, 0.02% NP-40, 1 mM DTT, 0.25 mM PMSF, 1 mM benzamidine, 0.5 mgml^−1 aprotinin and Protease Inhibitor Cocktail (Complete, Roche)), with or without xenobiotics by vortexing in the presence of glass beads. The Flag-tagged proteins were then immunoprecipitated by adding anti-Flag M2 antibody-beads (Sigma) and incubating for 3 hr with mutating at 4 C. After washing five times with 1 ml of 0.25 M KCl IP buffer, bound proteins were eluted with 0.1 mgml^−1 Flag peptide (Sigma). Xenobiotics at the indicated concentrations were present at all steps of the co-immunoprecipitation, including washing. […]
Xenobiotic-binding experiments were performed essentially as described (Kapinsky & Lasar, 435 Nature 446-51 (2005)), with some modifications as explained herein. Radiolabelled ketoconazole (KET: [^3H]G), specific radioactivity 10 Ci mmol^−1, was purchased from American Radiolabelled Chemicals. […]

| SMILES | induction of expression of drug efflux pump PDR5 and other Pdr1p/Pdr3p target genes (PDR5 gene) | competition of binding of radiolabelled ketoconazole to Pdr1p by unlabelled xenobiotic (Myc6-Pdr1p) |
| --- | --- | --- |
| C[C@@H]1C[C@H]2[C@@H]3CCC4=CC(=O)C=C[C@]4(C)[C@@]3(F)[C@@H](O)C[C@]2(C)[C@@]1(O)C(=O)CO [dexamethasone] | poor inducer | – |
| CO[C@H]1/C=C/O[C@@]2(C)Oc3c(C)c(O)c4c(O)c(c(/C=N/N5CCN(C)CC5)c(O)c4c3C2=O)NC(=O)/C(C)=C\C=C\[C@H](C)[C@H](O)[C@@H](C)[C@@H](O)[C@@H](C)[C@H](OC(C)=O)[C@@H]1C [rifampicin] | induced | effectively competed |
